From PMC10763615 (RSC Chemical Biology, 2023)

Columns and labels:
[1] = general procedure: Fmoc solid-phase peptide synthesis; Fmoc-PAL AM resin (Novabiochem) pre-loaded with GSGSDYKDDDDK-NH2; DIC / Oxyma / collidine; details: whole synthesis, analytical HPLC/UPLC
[2] = peptide made by a vendor (Fmoc solid-phase peptide synthesis; Fmoc-PAL AM resin (Novabiochem) pre-loaded with GSGSDYKDDDDK-NH2; DIC / Oxyma / collidine); details: whole synthesis, analytical HPLC/UPLC

| Substance | crude HPLC purity [1] [%] | final HPLC purity [2] [%] |
| --- | --- | --- |
| PEPTIDE1{[ac].M.C.Y.L.D.D.F.Y.S.Y.R.Y.W.A.C.G.S.G.S.D.Y.K.D.D.D.D.K.[am]}$PEPTIDE1,PEPTIDE1,3:R3-16:R3$$$V2.0 | 23.91 | 88.29 |
| PEPTIDE1{[ac].M.C.Y.T.R.F.Y.N.W.E.K.W.Q.L.C.G.S.G.S.D.Y.K.D.D.D.D.K.[am]}$PEPTIDE1,PEPTIDE1,3:R3-16:R3$$$V2.0 | 62.39 | 87.56 |

Some peptides are written in HELM: one residue between dots, names in brackets for other building blocks, links after the first $.
